Results on two substances are retold here after publication doi:10.1101/209874.

Assay [1] deals with T1, Arabidopsis thaliana eIF(iso)4E-BD (LexA DNA-binding domain fusion) (Arabidopsis thaliana) (UniProt O04663).
T1 sequence: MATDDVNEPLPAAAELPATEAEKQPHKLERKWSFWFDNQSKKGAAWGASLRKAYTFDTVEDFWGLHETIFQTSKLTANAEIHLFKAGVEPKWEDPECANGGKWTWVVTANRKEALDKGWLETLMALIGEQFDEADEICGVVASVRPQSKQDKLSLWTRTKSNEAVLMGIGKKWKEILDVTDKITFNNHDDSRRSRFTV
Description: two-hybrid.

In assay [2] the target is T2, YFP-Arabidopsis eIF(iso)4E (Arabidopsis thaliana) (UniProt O04663).
T2 sequence: T1 sequence
The assay can be described thus: co-IP.

These are yes or no findings as the source states them, for the method shown. Binding can be weak; no strength is given. Where a sequence is shown, tags or fusion partners need not be part of it. For some assays here: Binding seen in cells or lysates may run through a third protein.

Take “TuMV VPg-AD (B42 activation domain fusion) (Turnip mosaic virus (TuMV))”: the binding entry in assay [1] is listed as “binds”.

Regarding “6xHIS-TuMV VPg-6xHIS-3xFLAG (Turnip mosaic virus (TuMV))”, the binding result in assay [2] is given as “binds”.
